Results are given in words; binding and its absence hold for the method and conditions named. Binding seen in cells or lysates may run through a third protein. Sequences can lack the tags named with a protein.
Target: T1, HPV16 E1 (HA-tagged) (HPV16) (UniProt P03114)
T1 sequence: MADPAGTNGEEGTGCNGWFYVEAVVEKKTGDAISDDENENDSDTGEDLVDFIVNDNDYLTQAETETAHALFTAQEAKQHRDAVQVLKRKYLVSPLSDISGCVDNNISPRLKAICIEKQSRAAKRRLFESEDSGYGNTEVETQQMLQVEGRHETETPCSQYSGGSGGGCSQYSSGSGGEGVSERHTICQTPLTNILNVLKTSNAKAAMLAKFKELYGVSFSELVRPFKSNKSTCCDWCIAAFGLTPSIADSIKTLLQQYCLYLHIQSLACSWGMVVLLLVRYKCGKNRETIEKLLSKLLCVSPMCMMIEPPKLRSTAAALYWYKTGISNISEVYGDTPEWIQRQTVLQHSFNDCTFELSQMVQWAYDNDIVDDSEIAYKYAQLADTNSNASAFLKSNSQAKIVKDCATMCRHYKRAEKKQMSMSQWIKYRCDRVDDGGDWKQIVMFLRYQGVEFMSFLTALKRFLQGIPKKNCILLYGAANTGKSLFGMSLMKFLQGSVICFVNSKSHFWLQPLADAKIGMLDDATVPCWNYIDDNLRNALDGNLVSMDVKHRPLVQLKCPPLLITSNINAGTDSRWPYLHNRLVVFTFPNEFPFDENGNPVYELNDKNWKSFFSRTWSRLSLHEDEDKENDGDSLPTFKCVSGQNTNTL
Assay: co-IP; C33a cells transfected with pOri and one viral protein alone (HA-E1 or E2); 500 µg lysate in 0.5% NP-40, 50 mM Tris pH 7.8, 150 mM NaCl; antibody (HA, E2 or SMARCAL1) overnight at 4°C, protein A beads, western blot

B1: SMARCAL1 (protein, UniProt Q9NZC9 1-954)
chain: MSLPLTEEQRKKIEENRQKALARRAEKLLAEQHQRTSSGTSIAGNPFQAKQGPSQNFPRESCKPVSHGVIFKQQNLSSSSNADQRPHDSHSFQAKGIWKKPEEMPTACPGHSPRSQMALTGISPPLAQSPPEVPKQQLLSYELGQGHAQASPEIRFTPFANPTHKPLAKPKSSQETPAHSSGQPPRDAKLEAKTAKASPSGQNISYIHSSSESVTPRTEGRLQQKSGSSVQKGVNSQKGKCVRNGDRFQVLIGYNAELIAVFKTLPSKNYDPDTKTWNFSMNDYSALMKAAQSLPTVNLQPLEWAYGSSESPSTSSEGQAGLPSAPSLSFVKGRCMLISRAYFEADISYSQDLIALFKQMDSRRYDVKTRKWSFLLEEHSKLIAKVRCLPQVQLDPLPTTLTLAFASQLKKTSLSLTPDVPEADLSEVDPKLVSNLMPFQRAGVNFAIAKGGRLLLADDMGLGKTIQAICIAAFYRKEWPLLVVVPSSVRFTWEQAFLRWLPSLSPDCINVVVTGKDRLTAGLINIVSFDLLSKLEKQLKTPFKVVIIDESHFLKNSRTARCRAAMPVLKVAKRVILLSGTPAMSRPAELYTQIIAVKPTFFPQFHAFGLRYCDAKRMPWGWDYSGSSNLGELKLLLEEAVMLRRLKSDVLSQLPAKQRKIVVIAPGRINARTRAALDAAAKEMTTKDKTKQQQKDALILFFNRTAEAKIPSVIEYILDLLESGREKFLVFAHHKVVLDAITQELERKHVQHIRIDGSTSSAEREDLCQQFQLSERHAVAVLSITAANMGLTFSSADLVVFAELFWNPGVLIQAEDRVHRIGQTSSVGIHYLVAKGTADDYLWPLIQEKIKVLAEAGLSETNFSEMTESTDYLYKDPKQQKIYDLFQKSFEKEGSDMELLEAAESFDPGSASGTSGSSSQNMGDTLDESSLTASPQKKRRFEFFDNWDSFTSPL
  binding: no binding

From PMC13170247
